Results published in the supplement of paper PMC8256030.
This is one part of the list. This data set is noisy: repeats of one test often differ as much as different tests do.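 HEK293T cells were given each compound shortly before transfection with a reporter in which red mCherry is followed by the SARS-CoV-2 frameshift element and then GFP in the −1 frame, so GFP appears only after frameshifting.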

test system: SARS-CoV-2 -1 PRF reporter mCherry-FSE-GFP(-1); assay: mCherry (red) intensity as percent of control; higher = higher upstream reporter expression; details: 10 µM; 24 h; HEK293T

| SMILES | mCherry |
| --- | --- |
| O=C(O)c1ccc[n+]([O-])c1 [oxiniacic acid] | 100% |
| NC12CC3CC(CC(C3)C1)C2 | 78.5% |
| CCCCCCCC(=O)O [octanoic acid] | 116% |
| CCn1cc(C(=O)O)c(=O)c2ccc(-c3ccncc3)cc21 [rosoxacin] | 97.2% |
| CN1CCN(C2=Nc3cc(Cl)ccc3Nc3ccccc32)CC1 | 92.8% |
| CN(C)/N=N/c1[nH]cnc1C(N)=O [Dacarbazine] | 58.7% |
| O=C(O)c1cc(=O)c2c(OCC(O)COc3cccc4oc(C(=O)O)cc(=O)c34)cccc2o1 [Disodium Cromoglycate] | 98.3% |
| NS(=O)(=O)c1ccc(NC(=O)OCCO)cc1 [sulocarbilate] | 102% |
| C[C@](N)(Cc1ccc(O)c(O)c1)C(=O)O [Methyldopa] | 77.9% |
| OC(CCN1CCCC1)(c1ccccc1)C1CCCCC1 (stereo not given) [procyclidine] | 98% |
| CCOC(=O)[C@H](CCc1ccccc1)N[C@@H](C)C(=O)N1C(=O)N(C)C[C@H]1C(=O)O [imidapril] | 77.9% |
| CC(=O)O[C@H]1C[C@@]2(C)[C@@H](C[C@@H](O)[C@H]3[C@@]4(C)CC[C@@H](O)[C@@H](C)[C@@H]4CC[C@@]32C)/C1=C(\CCC=C(C)C)C(=O)O [Fusidic Acid] | 87% |
| Cc1c(OCC(F)(F)F)ccnc1C[S@@+]([O-])c1nc2ccccc2[nH]1 [dexlansoprazole] | 39.2% |
| CC(CN(C)C)CN1c2ccccc2Sc2ccccc21 (stereo not given) [alimemazine] | 129% |
| C[C@H]1O[C@@H](O[C@H]2[C@@H](O)C[C@H](O[C@H]3[C@@H](O)C[C@H](O[C@H]4CC[C@@]5(C)[C@H](CC[C@@H]6[C@@H]5C[C@@H](O)[C@]5(C)[C@@H](C7=CC(=O)OC7)CC[C@]65O)C4)O[C@@H]3C)O[C@@H]2C)C[C@H](O)[C@@H]1O | 15.8% |
| NC(=O)c1cccnc1 [nicotinamide] | 91.9% |
| O=C(CCCl)NCc1ccccc1 [beclamide] | 83.7% |
| CN1CC(=O)N=C1NC(=O)Nc1cccc(Cl)c1 [fenobam] | 68.4% |
| O=C1[C@@H]2[C@H]3CC[C@H](C3)[C@@H]2C(=O)N1C[C@@H]1CCCC[C@H]1CN1CCN(c2nsc3ccccc23)CC1 [lurasidone] | 90.6% |
| C[C@H]1[C@H](O)O[C@@H]2O[C@@]3(C)CC[C@H]4[C@H](C)CC[C@@H]1[C@@]24OO3 | 29.5% |

| SMILES | mCherry |
| --- | --- |
| CC(=O)OCC(=O)[C@H]1CC[C@H]2[C@@H]3CCC4=CC(=O)CC[C@]4(C)[C@H]3CC[C@]12C | 67.6% |
| CC(=O)N[C@H](Cc1ccc2ccccc2c1)C(=O)N[C@H](Cc1ccc(Cl)cc1)C(=O)N[C@H](Cc1cccnc1)C(=O)N[C@@H](CO)C(=O)N(C)[C@@H](Cc1ccc(O)cc1)C(=O)N[C@H](CC(N)=O)C(=O)N[C@@H](CC(C)C)C(=O)N[C@@H](CCCCNC(C)C)C(=O)N1CCC[C@H]1C(=O)N[C@H](C)C(N)=O [abarelix] | 96.3% |
| CN(C(=O)CN(CCO)CC(=O)N(C)C(C)(C)Cc1ccccc1)C(C)(C)Cc1ccccc1 [oxetacaine] | 88.8% |
| NC(=O)NS(=O)(=O)c1ccc(N)cc1 [sulfacarbamide] | 96.9% |
| OB1OCc2cc(F)ccc21 [Tavaborole] | 80.9% |
| COc1cc(/C=C/C(=O)N2CCN(CC(=O)N3CCCC3)CC2)cc(OC)c1OC [cinepazide] | 93.4% |
| CCC(=O)O[C@H]1[C@H](O[C@@H]2[C@@H](C)[C@H](O[C@H]3C[C@@](C)(OC)[C@@H](O)[C@H](C)O3)[C@@H](C)C(=O)O[C@H](CC)[C@@](C)(O)[C@H](O)[C@@H](C)C(=O)[C@H](C)C[C@@]2(C)O)O[C@H](C)C[C@@H]1N(C)C | 118% |
| CN[C@H](C(=O)N[C@H](C(=O)N(C)[C@H](/C=C(\C)C(=O)O)C(C)C)C(C)(C)C)C(C)(C)c1ccccc1 [taltobulin] | 94.4% |
| Cc1c(OCC(F)(F)F)ccnc1C[S+]([O-])c1nc2ccccc2[nH]1 (stereo not given) [lansoprazole] | 141% |
| O=C(O)CCCN1CCC(O[C@@H](c2ccc(Cl)cc2)c2ccccn2)CC1 [Bepreve] | 120% |
| CC[C@H]1OC(=O)[C@H](C)[C@@H](O[C@H]2C[C@@](C)(OC)[C@@H](O)[C@H](C)O2)[C@H](C)[C@@H](O[C@@H]2O[C@H](C)C[C@H](N(C)C)[C@H]2O)[C@](C)(O)C[C@@H](C)/C(=N\OCOCCOC)[C@H](C)[C@@H](O)[C@]1(C)O | 77.6% |
| C=C1C[C@H]2[C@@H]3C=C(C)C4=CC(=O)CC[C@]4(C)[C@H]3CC[C@]2(C)[C@@]1(OC(C)=O)C(C)=O | 99% |
| CSC[C@H](NC(=O)[C@H](Cc1ccccc1)NC(=O)N1CCOCC1)C(=O)N[C@@H](CC1CCCCC1)[C@@H](O)C(=O)OC(C)C [terlakiren] | 63.6% |
| CC(C)(CO)NCC(O)c1ccccc1 (stereo not given) [fepradinol] | 78% |
| COc1cc2cc(c1Cl)N(C)C(=O)C[C@H](OC(=O)[C@H](C)N(C)C(C)=O)[C@]1(C)O[C@H]1[C@H](C)[C@@H]1C[C@@](O)(NC(=O)O1)[C@H](OC)/C=C/C=C(\C)C2 [maitansine] | 109% |
| Oc1ccc(OCc2ccccc2)cc1 [monobenzone] | 119% |
| C/C=C/C/C=C/CCC(=O)[C@H]1O[C@H]1C(N)=O [Helicocerin] | 102% |
| NS(=O)(=O)c1cc2c(cc1Cl)NC(CSCc1ccccc1)NS2(=O)=O (stereo not given) [hydrobentizide] | 79.2% |
| CC(C)(Oc1ccc(Cl)cc1)C(=O)O [calcium clofibrate] | 154% |
| c1ccc2c(c1)OCC(CN1CCCCC1)O2 (stereo not given) [piperoxan] | 79.5% |

Reformatted: 2 of the compounds above.
CCCCCCCC(=O)O [octanoic acid]
  mCherry: 116%
O=C(O)c1cc(=O)c2c(OCC(O)COc3cccc4oc(C(=O)O)cc(=O)c34)cccc2o1 [Disodium Cromoglycate]
  mCherry: 98.3%
